PubChem BioAssay AID1259284 | Sanger Institute | 2017
This is an unselected part of 794 reagents. 16 of them (2%) were called active. 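Calls concern knock-down without drug only; drug synergy was judged apart, with scores above 0.15 taken as synergy.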 Not all columns of the deposit are shown. No sequences are given here. Not given: the amount of reagent, the time to read-out.

Screen: 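Kinase knock-downs that cut colorectal cancer cell growth alone or with targeted drugs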 (primary screen)
Cells: SW48 human colorectal cancer cells
Reagent: siRNA pool against human genes
Conditions: anchor drug BYL719 at 1 µM, cetuximab at 5 µg/ml or trametinib at 10 nM, or DMSO vehicle alone
Read-out: 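Cell viability relative to non-targeting pool wells, replicate mean, with robust z-scores and drug synergy scores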
Scale: robust z-score, no drug: higher = more cells survive knock-down
Rule for the call: 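a knock-down is essential if viability without drug gives a robust z-score under -3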
Meaning of the calls: active = essential without drug; inactive = no change without drug

gene	PubChem SID	robust z-score, no drug	outcome
TSKS (testis specific serine kinase substrate)	SID56479267	0.426	inactive
MAP3K7 (mitogen-activated protein kinase kinase kinase 7)	SID135620737	0.426	inactive
SYK (spleen associated tyrosine kinase)	SID56478554	-1.26	inactive
PIP4K2C (phosphatidylinositol-5-phosphate 4-kinase type 2 gamma)	SID56478804	0.426	inactive
MAP3K6 (mitogen-activated protein kinase kinase kinase 6)	SID56478746	0.426	inactive
TAOK3 (TAO kinase 3)	SID152152167	0.426	inactive
MAP4K2 (mitogen-activated protein kinase kinase kinase kinase 2)	SID56478700	0.426	inactive
CHEK1 (checkpoint kinase 1)	SID152148697	-2.33	inactive
CAMK2N1 (calcium/calmodulin dependent protein kinase II inhibitor 1)	SID152156102	-1.17	inactive
PIK3R5 (phosphoinositide-3-kinase regulatory subunit 5)	SID152147687	0.426	inactive
STK3 (serine/threonine kinase 3)	SID152146922	0.426	inactive
MPP1 (MAGUK p55 scaffold protein 1)	SID56479235	0.426	inactive
RBM10 (RNA binding motif protein 10)	SID134313901	-0.913	inactive
GK2 (glycerol kinase 2)	SID56479273	0.426	inactive
TEK (TEK receptor tyrosine kinase)	SID152152932	0.426	inactive
INSRR (insulin receptor related receptor)	SID56479015	0.426	inactive
GRK5 (G protein-coupled receptor kinase 5)	SID152146923	-0.363	inactive
PSTK (phosphoseryl-tRNA kinase)	SID134320501	0.426	inactive
PRAG1 (PEAK1 related, kinase-activating pseudokinase 1)	SID152147410	0.426	inactive
PEAK1 (pseudopodium enriched atypical kinase 1)	SID152152075	-0.947	inactive
TCF12 (transcription factor 12)	SID134311750	0.319	inactive
KDR (kinase insert domain receptor)	SID56478526	0.426	inactive
ELP1 (elongator acetyltransferase complex subunit 1)	SID56479224	-0.119	inactive
EIF2AK4 (eukaryotic translation initiation factor 2 alpha kinase 4)	SID152146907	0.366	inactive
NME7 (NME/NM23 family member 7)	SID56479121	0.426	inactive
MAP4K1 (mitogen-activated protein kinase kinase kinase kinase 1)	SID56478699	-1.04	inactive
IP6K2 (inositol hexakisphosphate kinase 2)	SID56479106	0.426	inactive
MARK2 (microtubule affinity regulating kinase 2)	SID152148068	-0.192	inactive
CDK7 (cyclin dependent kinase 7)	SID152150057	0.426	inactive
MAST1 (microtubule associated serine/threonine kinase 1)	SID135620865	0.426	inactive
ARID1A (AT-rich interaction domain 1A)	SID152147093	0.426	inactive
TRIB2 (tribbles pseudokinase 2)	SID56479059	0.162	inactive
PTK2 (protein tyrosine kinase 2)	SID56478542	0.426	inactive
CSNK1A1L (casein kinase 1 alpha 1 like)	SID135620867	0.426	inactive
NTN4 (netrin 4)	SID152155179	-1.72	inactive
IPPK (inositol-pentakisphosphate 2-kinase)	SID152153893	0.426	inactive
NR4A2 (nuclear receptor subfamily 4 group A member 2)	SID134309878	-0.224	inactive
MLKL (mixed lineage kinase domain like pseudokinase)	SID56479010	0.426	inactive
STK31 (serine/threonine kinase 31)	SID135620977	-1.08	inactive
MAPK11 (mitogen-activated protein kinase 11)	SID56478748	0.426	inactive
FGFR4 (fibroblast growth factor receptor 4)	SID56478514	0.426	inactive
PANK4 (pantothenate kinase 4 (inactive))	SID56479123	-2.17	inactive
PI4K2A (phosphatidylinositol 4-kinase type 2 alpha)	SID135621249	0.426	inactive
GNAS (GNAS complex locus)	SID152155794	-1.84	inactive
RIOK2 (RIO kinase 2)	SID134310711	0.426	inactive
SLK (STE20 like kinase)	SID56478731	0.426	inactive
PRKDC (protein kinase, DNA-activated, catalytic subunit)	SID56478960	-2.65	inactive
AKT2 (AKT serine/threonine kinase 2)	SID135620600	-0.28	inactive
MAPK9 (mitogen-activated protein kinase 9)	SID56478662	0.426	inactive
IGF2R (insulin like growth factor 2 receptor)	SID152150296	0.426	inactive
